In all, about 310,000 compounds went through this assay and about 17,000 (5.5%) were called active. The inconclusive results got no clear call from the source; some entries with a clear call stand among them for comparison. Calls follow the shape of the dose curve; as a rule, active = well fitted inhibition curve with a large enough effect; inconclusive = small, poorly fitted or top-dose-only effect, or effect the other way; inactive = no such curve, though single readings can be large or run the other way. Potencies beside an inconclusive call are fits to weak or partial responses and may not hold up.
biological target: Nuclear receptor ROR-gamma (Mus musculus) (UniProt P51450); assay: qHTS for inhibitors of ROR gamma transcriptional activity; settings: Drosophila S2 Gal4-RORgamma UAS-luciferase reporter, 20 h; activity change, negative = inhibition: at 53.6 µM (top of the series); also: nearly all actives have a fitted effect of over 60% in size
Outline: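 Using a luciferase readout, inhibitors were identified by reduced reporter activity in Drosophila cells coexpressing a copper-inducible Gal4–ROR gamma fusion and UAS-driven Photinus luciferase, incubated 20 hr after 700 uM copper sulfate.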
% is scaled to controls: 0 for no effect and ±100 for the full control effect; potency is read from the fitted curve at half-maximal effect.

Sequences of proteins named here, by UniProt entry; tags and fusion partners are left off. A change or cut given only in a name is not applied to a line headed by its entry.
UniProt P51450: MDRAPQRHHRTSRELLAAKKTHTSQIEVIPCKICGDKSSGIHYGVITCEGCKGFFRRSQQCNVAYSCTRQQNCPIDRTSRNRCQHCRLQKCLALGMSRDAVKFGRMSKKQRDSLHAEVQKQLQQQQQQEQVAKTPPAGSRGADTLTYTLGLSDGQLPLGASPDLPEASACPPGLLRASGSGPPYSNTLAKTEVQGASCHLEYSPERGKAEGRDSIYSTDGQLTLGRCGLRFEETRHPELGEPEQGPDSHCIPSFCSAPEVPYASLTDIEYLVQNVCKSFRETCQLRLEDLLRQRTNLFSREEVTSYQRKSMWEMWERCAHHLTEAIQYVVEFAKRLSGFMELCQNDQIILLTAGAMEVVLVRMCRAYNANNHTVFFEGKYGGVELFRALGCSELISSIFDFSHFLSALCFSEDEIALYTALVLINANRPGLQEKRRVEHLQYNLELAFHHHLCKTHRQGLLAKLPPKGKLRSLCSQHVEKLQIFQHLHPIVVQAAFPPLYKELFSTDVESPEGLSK

| Compound | activity change, negative = inhibition | Potency |
| --- | --- | --- |
| O=c1cc(CN2CCN(c3ccc(O)cc3)CC2)nc2scc(-c3ccccc3)n12 | inactive: 18.6% | – |
| COc1ccc(OCC(O)Cn2c(N3CCCCC3)nc3c2c(=O)n(C)c(=O)n3C)cc1 (stereo unspecified) | – | inconclusive: 10 µM [activator, partial curve] |
| CC1(c2ccc3ccccc3c2)NC(=O)N(CC(=O)N2CCN(c3ccccc3O)CC2)C1=O (stereo unspecified) | – | inconclusive: 11.2 µM [activator, partial curve, poor fit] |
| COc1ccc(N(C(=O)c2cnccn2)C(C(=O)NC2CCCCC2)c2ccc(O)cc2)cc1 (stereo unspecified) | inactive: -0.499% | – |
| COc1ccc(C(=O)N2CCC(n3nccc3NC(=O)C3CC3)CC2)cc1F | – | inconclusive: 14.1 µM [inhibitor, single point] |
| CCOC(=O)c1csc(NC(=O)CC2CCCC2)n1 | – | active: 11.2 µM |
| O=C(CSc1cccc2cccnc12)N/N=C/c1ccncc1 | – | inconclusive: 20 µM [inhibitor, single point] |
| COc1ccc2c(c1OC)C(=O)N1N=C(c3ccc(Cl)cc3)CC21 (stereo unspecified) | – | inconclusive: 8.91 µM [activator, partial curve] |
| O=C(CN1CCCC1)Nc1sc2c(c1C(=O)Nc1ccccc1)CCCC2 | – | active: 5.01 µM |
| Cc1ccc(NC(=O)/C=C/c2ccco2)nc1 | – | inconclusive: 0.178 µM [activator, full curve] |
| O=c1cc(-c2ccccc2)[nH]n1-c1nc2ccccc2[nH]1 | – | inconclusive: 11.2 µM [inhibitor, single point] |
| COC(=O)c1cc(OC)c(OC)cc1NC(=O)c1ccoc1C | – | inconclusive: 1.78 µM [activator, full curve, poor fit] |
| COc1ccccc1N1CCN(c2nccc(C)n2)CC1 | inactive: -5.13% | – |
| CC1CCN(C(=S)c2cn(Cc3ccccc3F)c3ccccc23)CC1 | – | active: 0.891 µM |
| COc1ccccc1-n1nnnc1S(=O)(=O)Cc1ccc(Cl)cc1 | – | active: 11.2 µM |
| CS(=O)(=O)N1CCc2cc(C(=O)N3CCN(c4cccc(Cl)c4)CC3)ccc21 | – | inconclusive: 20 µM [activator, single point] |
| Cc1ccc(S(=O)(=O)N2CCCOC2CNC(=O)C(=O)NC2CCCCC2)cc1 (stereo unspecified) | – | inconclusive: 20 µM [activator, partial curve] |
| Cn1c(=O)c2c(nc(NCc3cccnc3)n2Cc2cccc(C(F)(F)F)c2)n(C)c1=O | – | inconclusive: 35.5 µM [inhibitor, single point] |
| CCOc1cc(/C=C(\C#N)C(=O)Nc2cccc(C(=O)O)c2)cc(Br)c1OC(=O)c1ccc(OC)cc1 | – | inconclusive: 35.5 µM [inhibitor, single point] |
| CC(SCC(=O)NC12CC3CC(CC(C3)C1)C2)C(=O)O (stereo unspecified) | inactive: -8.24% | – |
| O=C1NC(=Nc2cccc(O)c2)S/C1=C\c1cccc([N+](=O)[O-])c1 | – | inconclusive: 35.5 µM [activator, single point] |
| c1ccc2c(c1)CCN(C1=Nc3cccc4cccc1c34)C2 | – | inconclusive: 10 µM [inhibitor, partial curve] |
| Cc1nnc(N/N=C/c2cc([N+](=O)[O-])c(N3CCC(C)CC3)cc2N2CCC(C)CC2)n1N | – | active: 15.8 µM |

Single values from above.
O=C(CN1CCCC1)Nc1sc2c(c1C(=O)Nc1ccccc1)CCCC2 | Potency: active: 5.01 µM
CCOc1cc(/C=C(\C#N)C(=O)Nc2cccc(C(=O)O)c2)cc(Br)c1OC(=O)c1ccc(OC)cc1 | Potency: inconclusive: 35.5 µM [inhibitor, single point]
O=c1cc(CN2CCN(c3ccc(O)cc3)CC2)nc2scc(-c3ccccc3)n12 | activity change, negative = inhibition: inactive: 18.6%

The listing continues:

| Compound | activity change, negative = inhibition | Potency |
| --- | --- | --- |
| Cc1ccc(S(=O)(=O)NNC(=O)C(=O)NNc2ccccn2)cc1 | – | active: 8.91 µM |
| CCCSC1=C(C#N)C(c2ccc(OC)cc2)C2=C(CC(C)(C)CC2=O)N1 (stereo unspecified) | – | inconclusive: 14.1 µM [activator, single point] |
| Cc1cccc(Nc2nnc(SCc3cc(=O)n4cc(C)ccc4n3)s2)c1 | – | inconclusive: 25.1 µM [activator, single point] |
| O=C(c1ccc(Cl)cc1)n1cnc2ccccc21 | inactive: -14.8% | – |
| O=C(Nc1cccc(Cl)c1)Nc1nc(-c2ccc(Cl)cc2)cs1 | – | inconclusive: 14.1 µM [activator, single point] |
| CCN(CC)CCNc1nc2cc(OC)c(OC)cc2c2nc(-c3ccccc3)nn12 | inactive: -15.7% | – |
| Cc1cc(C)n(-c2ccc(C(=O)Nc3cccc(S(=O)(=O)N(C)C)c3)cc2)n1 | – | inconclusive: 2.51 µM [activator, full curve] |
| CC1CCCCN1C(=O)C1CC(c2ccc(F)cc2)=NO1 (stereo unspecified) | – | inconclusive: 35.5 µM [inhibitor, single point] |
| CC(=O)N1CCCc2cc(S(=O)(=O)N3CCCC(C(=O)N4CCN(c5cccc(Cl)c5)CC4)C3)ccc21 (stereo unspecified) | – | active: 5.62 µM |
| CC(C)OC(=O)c1ccc(NC(=O)c2ccco2)cc1 | – | inconclusive: 2 µM [activator, full curve, poor fit] |
| Cc1ccccc1OCc1ccc(C(=O)N2CCOCC2)o1 | inactive: -9.37% | – |
| CC(CC(=O)NCC1CCCO1)c1ccccc1 (stereo unspecified) | – | inconclusive: 35.5 µM [activator, single point] |
| CN(CC(=O)Nc1cccc(F)c1)C(=O)C1CC(=O)N(Cc2ccccc2)C1 (stereo unspecified) | inactive: 20.4% | – |
| CCCc1nc2ccccc2n1C(=S)SC | – | active: 11.2 µM |
| CCC1=NN2C(=N)/C(=C\c3cccn3-c3c(C)cccc3C)C(=O)N=C2S1 | – | inconclusive: 20 µM [inhibitor, single point] |
| O=C(N/N=C/c1cccnc1)c1cccc(Br)c1 | inactive: -13.3% | – |
| C(#CCN1CCOCC1)COCCOC(c1ccccc1)c1ccccc1 | – | inconclusive: 22.4 µM [activator, single point] |
| O=C(Nc1ccc(-c2csc(Nc3ccccc3)n2)cc1)c1cccc(C(F)(F)F)c1 | – | inconclusive: 0.141 µM [inhibitor, full curve, poor fit] |
| CCc1c(C2(O)CCCCC2)[nH]c2ccc(C(F)(F)F)cc12 | – | inconclusive: 35.5 µM [activator, single point] |
| CCCCCCNc1cc(C)oc(=O)c1C(C)=O | – | inconclusive: 2.24 µM [activator, full curve, poor fit] |
| Cc1ccc(C(=O)Nc2ccc(O)cc2C(=O)O)cc1 | – | inconclusive: 35.5 µM [inhibitor, single point] |
| S=C(NCc1ccc(Cl)cc1)NC12CC3CC(CC(C3)C1)C2 | – | active: 2 µM |
| Oc1[nH]c2ccc(Br)cc2c1N=NC(=S)N1CCOCC1 | – | active: 1.58 µM |
